Assay [1] deals with Full-length dP75 (residues 1-475), two-hybrid fusion in pBTM116 (Drosophila). In words: two-hybrid.
Assay [2] addresses C-terminus fragment of dP75 including the IBD, two-hybrid fusion in pBTM116 (Drosophila). In words: two-hybrid.

No constants are given. Whether binding was seen depends on the method and setting. A result given as binding can be weak or reduced; the word gives no strength. Tags and fused reporters may be left off the sequences shown.

B1: Jil-1 fragment residues 255-541, two-hybrid fusion in pACT2 (domain or fragment, UniProt Q9V3I5 255-541)
chain: AVSLNDFKIIRVLGTGAYGRVFLVRKLTRHDAGKLYAMKVLNKITVVQKRKTAEHTKTERVVLEAIQRNPFLVSLHYAFQSSSKLYLVLDFANGGELFTHLYHSENFEESRVRVYIAEVVLALEQLHQLGIIYRDIKLENILLDGEGHIVLSDFGLSKILTAENEYRAHSFCGTLEYMAPEIIRTGPPGHDSAVDWWSVGVLTFELLTGASPFATSDGQVQQSEISRRIQKEQPMIPSSFSANARDFVLKMLEKNPKRRLGGNHRDASEIKEHPFFNGINWQELRTK
Turning to B1, in assay [1], the binding result is given as “no binding”.

B2: Jil-1 fragment residues 525-990, two-hybrid fusion in pACT2 (domain or fragment, UniProt Q9V3I5 525-990)
chain: KEHPFFNGINWQELRTKRRKAPYKPTLTAEDDVQNFSNEFTDQVPEDPECDAPPSRIRLFRGYTYVAPEHLEQMRRDNHCEIQYFNTGLQNIPCRPDDLELGTRTSNGAYGTCHFVVDSSTDLVFLAKIIPLSKFRPSEVDALISCALDTTNHKNIVSYHGTFREKCETWIVMEYLSGPELTASIRMDEDSCREIFLQLVMAVRHIHSKHFIHGDLKPENIMFENREDRTVKLIDFGSACYNNRFKSWKDKPRYTLDYAPPEMLADANLVTYSPAVDIYGLGATLYTMLVGHRPYRQNEDDVDHSAAAHHELRKRMRRGTFNQRSMRWESASPAFRHLVSWCLQRDPADRPTLSDILDSEWLQYGSNDPDVDIILPQQMVVDLSEDTMEQPTGGMFDDQQQLEFMHDKSAEDEGITLVSEPMDTTVATHESRRNAAAFSSVVAPTTDDEIVHERFDPAFEVQADFY
B2: in assay [1], the binding entry was “no binding”.

B3: C-terminal fragment of Jil-1 (residues 984-1122), two-hybrid fusion in pACT2 (domain or fragment, UniProt Q9V3I5 984-1122)
chain: EVQADFYGFDENAPPLPLPEEYYSELPLPEEDRQYIPPPPALIPVEPETTFRRPRTRQQRRTESQLVQPVSVATYEDSKASLRVLMQQLPPPGDNVVARIPKRTHRVVRTLPPTFGTTKREENFYGFSKTAISWRKTRA
In the case of B3, the binding result in assay [2] and in assay [1] was “binds” in each case.

B4: N-terminal domain of Jil-1 (residues 1-255), two-hybrid fusion in pACT2 (domain or fragment, UniProt Q9V3I5 1-255)
chain: MSRLQKQNYEILSGTSTSRLKNHQHPRESESLAYEEPDQMVRNHLNGQLVANGNGKTRKNSNSETMTNGKKSKLNTEGSGSGSGKTLNYNNNNNNNNSISATNGQYTNSSSKTTSASARDYTYRETISPPTPPSPPTTNVADIVCISDAESEDGRDPEREYYDQDMEEDEPNGIEIDESSSSLSKAKSNNAAAAAAAAAAAAAAAASKASSSTTPSYAMPTSNSTPLDLDNEAHQRDLEAVTDLKYYVKLYSDEA
B4: in assay [1], the binding entry is “no binding”.

B5: Full-length Jil-1 (residues 1-1207), two-hybrid fusion in pACT2 (enzyme, UniProt Q9V3I5 1-1207)
chain: MSRLQKQNYEILSGTSTSRLKNHQHPRESESLAYEEPDQMVRNHLNGQLVANGNGKTRKNSNSETMTNGKKSKLNTEGSGSGSGKTLNYNNNNNNNNSISATNGQYTNSSSKTTSASARDYTYRETISPPTPPSPPTTNVADIVCISDAESEDGRDPEREYYDQDMEEDEPNGIEIDESSSSLSKAKSNNAAAAAAAAAAAAAAAASKASSSTTPSYAMPTSNSTPLDLDNEAHQRDLEAVTDLKYYVKLYSDEAVSLNDFKIIRVLGTGAYGRVFLVRKLTRHDAGKLYAMKVLNKITVVQKRKTAEHTKTERVVLEAIQRNPFLVSLHYAFQSSSKLYLVLDFANGGELFTHLYHSENFEESRVRVYIAEVVLALEQLHQLGIIYRDIKLENILLDGEGHIVLSDFGLSKILTAENEYRAHSFCGTLEYMAPEIIRTGPPGHDSAVDWWSVGVLTFELLTGASPFATSDGQVQQSEISRRIQKEQPMIPSSFSANARDFVLKMLEKNPKRRLGGNHRDASEIKEHPFFNGINWQELRTKRRKAPYKPTLTAEDDVQNFSNEFTDQVPEDPECDAPPSRIRLFRGYTYVAPEHLEQMRRDNHCEIQYFNTGLQNIPCRPDDLELGTRTSNGAYGTCHFVVDSSTDLVFLAKIIPLSKFRPSEVDALISCALDTTNHKNIVSYHGTFREKCETWIVMEYLSGPELTASIRMDEDSCREIFLQLVMAVRHIHSKHFIHGDLKPENIMFENREDRTVKLIDFGSACYNNRFKSWKDKPRYTLDYAPPEMLADANLVTYSPAVDIYGLGATLYTMLVGHRPYRQNEDDVDHSAAAHHELRKRMRRGTFNQRSMRWESASPAFRHLVSWCLQRDPADRPTLSDILDSEWLQYGSNDPDVDIILPQQMVVDLSEDTMEQPTGGMFDDQQQLEFMHDKSAEDEGITLVSEPMDTTVATHESRRNAAAFSSVVAPTTDDEIVHERFDPAFEVQADFYGFDENAPPLPLPEEYYSELPLPEEDRQYIPPPPALIPVEPETTFRRPRTRQQRRTESQLVQPVSVATYEDSKASLRVLMQQLPPPGDNVVARIPKRTHRVVRTLPPTFGTTKREENFYGFSKTAISWRKTRASWRHFCLLINGVQQVLKVRFKKARRVYCLPHIKEEKLDHAYEKPLTFPRPKAQLKRTKREPKVPRPPTRVQPERARAMRQLYQFQ
For the molecule B5, in assay [1], the binding entry is “binds”.

(Values after doi:10.1101/856021.)
